From the supplement of paper PMC8728848
The list shows a part of the results.

How the values were obtained:
Assay in all cases: glycan array binding signal (z-score within array); higher = stronger binding
Conditions in all cases: glycan notation: IUPAC condensed, linker removed
[1] = biological target: Gal(a1-3)Gal(b1-4)GlcNAc(b1-2)Man
Method in brief: (§1)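 Negative Z-scores can be read as non-binding. The Z-score is calculated within each array and then averaged across arrays of one protein sequence at different concentrations or buffers and across linkers. Arrays, 3228 in all, were curated from the Consortium for Functional Glycomics database and kept only where the protein sequence was available.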

[2] = biological target: Gal(a1-3)Gal(b1-4)GlcNAc(b1-2)Man(a1-3)[Gal(a1-3)Gal(b1-4)GlcNAc(b1-2)Man(a1-6)]Man(b1-4)GlcNAc(b1-4)GlcNAc
Method in brief: as §1

[3] = biological target: Gal(a1-3)Gal(b1-4)GlcNAc(b1-3)GalNAc
Method in brief: as §1

[4] = biological target: Gal(a1-3)Gal(b1-4)GlcNAc(b1-6)GalNAc
Method in brief: as §1

[5] = biological target: Gal(a1-3)Gal(b1-4)[Fuc(a1-3)]GlcNAc
Method in brief: as §1

[6] = biological target: Gal(a1-3)Gal(b1-4)[Fuc(a1-3)]GlcNAc(b1-2)Man(a1-3)[Gal(a1-3)Gal(b1-4)[Fuc(a1-3)]GlcNAc(b1-2)Man(a1-6)]Man(b1-4)GlcNAc(b1-4)GlcNAc
Method in brief: as §1

[7] = biological target: Gal(a1-3)GalNAc
Method in brief: as §1

[8] = biological target: Gal(a1-3)[Gal(a1-4)]Gal(b1-4)GlcNAc
Method in brief: as §1

[9] = biological target: Gal(a1-4)Gal(b1-3)GlcNAc(b1-2)Man(a1-3)[Gal(a1-4)Gal(b1-3)GlcNAc(b1-2)Man(a1-6)]Man(b1-4)GlcNAc(b1-4)GlcNAc
Method in brief: as §1

[10] = biological target: Gal(a1-4)Gal(b1-4)Glc
Method in brief: as §1

[11] = biological target: Gal(a1-4)Gal(b1-4)GlcNAc
Method in brief: as §1

[12] = biological target: Gal(a1-4)Gal(b1-4)GlcNAc(b1-2)Man(a1-3)[Gal(a1-4)Gal(b1-4)GlcNAc(b1-2)Man(a1-6)]Man(b1-4)GlcNAc(b1-4)GlcNAc
Method in brief: as §1

[13] = biological target: Gal(a1-4)Gal(b1-4)GlcNAc(b1-3)Gal(b1-4)Glc
Method in brief: as §1

[14] = biological target: Gal(a1-4)GlcNAc
Method in brief: as §1

[15] = biological target: Gal(a1-6)Glc
Method in brief: as §1

[16] = biological target: Gal(b1-2)Gal
Method in brief: as §1

[17] = biological target: Gal(b1-3)Gal
Method in brief: as §1

[18] = biological target: Gal(b1-3)Gal(b1-4)GlcNAc
Method in brief: as §1

[19] = biological target: Gal(b1-3)GalNAc
Method in brief: as §1

[20] = biological target: Gal(b1-3)GalNAc(a1-3)[Fuc(a1-2)]Gal(b1-4)Glc
Method in brief: as §1

[21] = biological target: Gal(b1-3)GalNAc(a1-3)[Fuc(a1-2)]Gal(b1-4)GlcNAc
Method in brief: as §1

[22] = biological target: Gal(b1-3)GalNAc(b1-3)Gal
Method in brief: as §1

[23] = biological target: Gal(b1-3)GalNAc(b1-3)Gal(a1-4)Gal(b1-4)Glc
Method in brief: as §1

[24] = biological target: Gal(b1-3)GalNAc(b1-4)Gal(b1-4)Glc
Method in brief: as §1

[25] = biological target: Gal(b1-3)GalNAc(b1-4)[Neu5Ac(a2-3)]Gal(b1-4)Glc
Method in brief: as §1

[26] = biological target: Gal(b1-3)GlcNAc
Method in brief: as §1

[27] = biological target: Gal(b1-3)GlcNAc(a1-3)Gal(b1-4)GlcNAc
Method in brief: as §1

[28] = biological target: Gal(b1-3)GlcNAc(a1-6)Gal(b1-4)GlcNAc
Method in brief: as §1

[29] = biological target: Gal(b1-3)GlcNAc(b1-2)Man
Method in brief: as §1

[30] = biological target: Gal(b1-3)GlcNAc(b1-2)Man(a1-3)[Gal(b1-3)GlcNAc(b1-2)Man(a1-6)]Man(b1-4)GlcNAc(b1-4)GlcNAc
Method in brief: as §1

[31] = biological target: Gal(b1-3)GlcNAc(b1-2)Man(a1-3)[Gal(b1-3)GlcNAc(b1-2)Man(a1-6)]Man(b1-4)GlcNAc(b1-4)[Fuc(a1-6)]GlcNAc
Method in brief: as §1

[32] = biological target: Gal(b1-3)GlcNAc(b1-2)Man(a1-3)[GlcNAc(b1-4)][Gal(b1-3)GlcNAc(b1-2)Man(a1-6)]Man(b1-4)GlcNAc(b1-4)GlcNAc
Method in brief: as §1

[33] = biological target: Gal(b1-3)GlcNAc(b1-2)[Gal(b1-3)GlcNAc(b1-6)]Man(a1-6)[Gal(b1-3)GlcNAc(b1-2)Man(a1-3)]Man(b1-4)GlcNAc(b1-4)GlcNAc
Method in brief: as §1

[34] = biological target: Gal(b1-3)GlcNAc(b1-3)Gal(b1-3)GlcNAc
Method in brief: as §1

[35] = biological target: Gal(b1-3)GlcNAc(b1-3)Gal(b1-4)Glc
Method in brief: as §1

[36] = biological target: Gal(b1-3)GlcNAc(b1-3)Gal(b1-4)GlcNAc
Method in brief: as §1

[37] = biological target: Gal(b1-3)GlcNAc(b1-3)Gal(b1-4)GlcNAc(b1-2)Man(a1-3)[Gal(b1-3)GlcNAc(b1-3)Gal(b1-4)GlcNAc(b1-2)Man(a1-6)]Man(b1-4)GlcNAc(b1-4)GlcNAc
Method in brief: as §1

[38] = biological target: Gal(b1-3)GlcNAc(b1-3)Gal(b1-4)GlcNAc(b1-2)[Gal(b1-3)GlcNAc(b1-3)Gal(b1-4)GlcNAc(b1-6)]Man(a1-6)[Gal(b1-3)GlcNAc(b1-3)Gal(b1-4)GlcNAc(b1-2)Man(a1-3)]Man(b1-4)GlcNAc(b1-4)[Fuc(a1-6)]GlcNAc
Method in brief: as §1

[39] = biological target: Gal(b1-3)GlcNAc(b1-3)Gal(b1-4)GlcNAc(b1-3)Gal(b1-4)GlcNAc(b1-2)[Gal(b1-3)GlcNAc(b1-3)Gal(b1-4)GlcNAc(b1-3)Gal(b1-4)GlcNAc(b1-6)]Man(a1-6)[Gal(b1-3)GlcNAc(b1-3)Gal(b1-4)GlcNAc(b1-3)Gal(b1-4)GlcNAc(b1-2)Man(a1-3)]Man(b1-4)GlcNAc(b1-4)[Fuc(a1-6)]GlcNAc
Method in brief: as §1

[40] = biological target: Gal(b1-3)GlcNAc(b1-3)Gal(b1-4)GlcNAc(b1-6)[Gal(b1-3)GlcNAc(b1-3)]Gal(b1-4)Glc
Method in brief: as §1

[41] = biological target: Gal(b1-3)GlcNAc(b1-3)Gal(b1-4)[Fuc(a1-3)]GlcNAc
Method in brief: as §1

[42] = biological target: Gal(b1-3)GlcNAc(b1-3)Gal(b1-4)[Fuc(a1-3)]GlcNAc(b1-6)[Gal(b1-3)GlcNAc(b1-3)]Gal(b1-4)Glc
Method in brief: as §1

[43] = biological target: Gal(b1-3)GlcNAc(b1-3)GalNAc
Method in brief: as §1

[44] = biological target: Gal(b1-3)GlcNAc(b1-6)Gal(b1-4)GlcNAc
Method in brief: as §1

[45] = biological target: Gal(b1-3)GlcNAc(b1-6)GalNAc
Method in brief: as §1

B1: Pwp6 (Candida glabrata) (protein)
chain: MGSSHHHHHHSSGLVPRGSHMASANLPKLTNICQIPDNVKKTSGFKGEIRRIGLFPPGGDYTYLLKFPSTGSTASDTISLTTKPQLSTSGWFPSLFGHTYFIKADLLVYMVAYFVPTETGEYTFKLVNSDDAAVMYVGNPSAFPCGSIDTWPEPRKEDINVCDKISASTKLYMEKGLAYPVRLVWYNGGGDGQFNAQFIDPSGTTHTDWNGYVWQYDACTDCDYK
glycan array binding signal (z-score) [1]: -0.387
glycan array binding signal (z-score) [2]: 0.491
glycan array binding signal (z-score) [3]: -0.062
glycan array binding signal (z-score) [4]: 0.221
glycan array binding signal (z-score) [5]: -0.637
glycan array binding signal (z-score) [6]: 1.96
glycan array binding signal (z-score) [7]: -0.551
glycan array binding signal (z-score) [8]: -0.638
glycan array binding signal (z-score) [9]: 0.15
glycan array binding signal (z-score) [10]: -0.407
glycan array binding signal (z-score) [11]: -0.715
glycan array binding signal (z-score) [12]: 1.05
glycan array binding signal (z-score) [13]: -0.294
glycan array binding signal (z-score) [14]: -0.819
glycan array binding signal (z-score) [15]: -0.322
glycan array binding signal (z-score) [16]: -0.685
glycan array binding signal (z-score) [17]: -0.945
glycan array binding signal (z-score) [18]: -0.617
glycan array binding signal (z-score) [19]: -0.22
glycan array binding signal (z-score) [20]: -0.124
glycan array binding signal (z-score) [21]: -0.316
glycan array binding signal (z-score) [22]: -0.632
glycan array binding signal (z-score) [23]: -0.281
glycan array binding signal (z-score) [24]: 0.163
glycan array binding signal (z-score) [25]: -0.134
glycan array binding signal (z-score) [26]: -0.708
glycan array binding signal (z-score) [27]: -0.532
glycan array binding signal (z-score) [28]: -0.419
glycan array binding signal (z-score) [29]: -0.876
glycan array binding signal (z-score) [30]: 0.331
glycan array binding signal (z-score) [31]: -0.261
glycan array binding signal (z-score) [32]: 0.054
glycan array binding signal (z-score) [33]: 0.538
glycan array binding signal (z-score) [34]: -0.044
glycan array binding signal (z-score) [35]: -0.487
glycan array binding signal (z-score) [36]: -0.208
glycan array binding signal (z-score) [37]: 0.354
glycan array binding signal (z-score) [38]: 2.53
glycan array binding signal (z-score) [39]: 1.06
glycan array binding signal (z-score) [40]: 0.772
glycan array binding signal (z-score) [41]: -0.59
glycan array binding signal (z-score) [42]: -0.346
glycan array binding signal (z-score) [43]: -0.228
glycan array binding signal (z-score) [44]: -0.893
glycan array binding signal (z-score) [45]: -0.063
